In PMC11530556:
Results are given in words; binding and its absence hold for the method and conditions named.

B1: LIM domain only protein 3 (LMO3) (protein, UniProt Q8TAP4 1-145)
chain: MLSVQPDTKPKGCAGCNRKIKDRYLLKALDKYWHEDCLKCACCDCRLGEVGSTLYTKANLILCRRDYLRLFGVTGNCAACSKLIPAFEMVMRAKDNVYHLDCFACQLCNQRFCVGDKFFLKNNMILCQTDYEEGLMKEGYAPQVR
B2: LIM/homeobox protein2 (LHX2) (protein, UniProt P50458 1-406)
chain: MLFHSLSGPEVHGVIDEMDRRAKSEAPAISSAIDRGDTETTMPSISSDRAALCAGCGGKISDRYYLLAVDKQWHMRCLKCCECKLNLESELTCFSKDGSIYCKEDYYRRFSVQRCARCHLGISASEMVMRARDLVYHLNCFTCTTCNKMLTTGDHFGMKDSLVYCRLHFEALLQGEYPAHFNHADVAAAAAAAAAAKSAGLGAAGANPLGLPYYNGVGTVQKGRPRKRKSPGPGADLAAYNAALSCNENDAEHLDRDQPYPSSQKTKRMRTSFKHHQLRTMKSYFAINHNPDAKDLKQLAQKTGLTKRVLQVWFQNARAKFRRNLLRQENTGVDKSTDAALQTGTPSGPASELSNASLSPSSTPTTLTDLTSPTLPTVTSVLTSVPGNLEGHEPHSPSQTTLTNLF

Target: full-length Titin N2B unique sequence (N2B-us) single-molecule construct, 6His-Avi-2I27-N2B-2I27-Spy (human)
Assay: magnetic tweezers single-molecule manipulation; single-molecule binding assay with other LIM domain proteins (Fig. S13); construct, concentration and conditions not told in the text shown

Binder	binding
B1	no binding
B2	no binding
